Source: PubChem BioAssay AID686943 (Drosophila RNAi Screening Center, 2013)
Assay: 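Knockdowns that increase or decrease active ERK after insulin receptor stimulation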 (primary screen). Cell system: Drosophila S2R+ haemocyte-like cells expressing YFP-tagged ERK (Rolled). Knock-down reagent: long dsRNA against Drosophila genes. Conditions: insulin stimulation versus unstimulated cells; dose and duration not given. Measured: 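Per-plate z-scores of phospho-ERK immunostaining normalised to YFP-tagged ERK, measured with and without insulin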. Direction: replicate 1, z-score of dpERK with insulin and replicate 2, z-score of dpERK with insulin: higher = more active ERK per ERK-YFP after insulin; replicate 1, z-score of dpERK under basal conditions: higher = more basal active ERK per ERK-YFP; replicate 1, z-score of ERK-YFP with insulin: higher = more YFP-tagged ERK signal.
The deposit covers about 23,000 reagents; this is a random part of those with a known target gene and a result. 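Extra replicates exist only for a retested subset of genes; insulin dose and duration not given; both raised and lowered dpERK matter.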 The numbers tell different reagents against one gene apart. Names joined by + are all predicted targets of the reagent. Not stated in the record: the amount of reagent, the time to read-out.

no.	Gene	reagent no.	replicate 1, z-score of dpERK with insulin	replicate 2, z-score of dpERK with insulin	replicate 1, z-score of dpERK under basal conditions	replicate 1, z-score of ERK-YFP with insulin
1	CG18628	1	0.47	-0.43	1.67	0.44
2	CG4789	1	-0.17	0.22	-0.63	0.03
3	Phlpp (PH domain leucine-rich repeat protein phosphatase)	1	-0.1	1.3	0.56	0.35
4	Phlpp (PH domain leucine-rich repeat protein phosphatase)	2	0.03	-0.28	-0.5	-0.83
5	Hn (Henna)	1	0.02	-0.07	-0.01	0.13
6	so (sine oculis)	1	-0.06	-3.78	1.85	0.72
7	Gr22b (Gustatory receptor 22b)	1	-0.54	-0.04	-1.56	-2.7
8	CG10064	1	0.24	0.21	-0.54	-0.63
9	CG15423	1	0.68	0.8	0.03	-1.07
10	CG5521	1	-0.31	0.05	1.17	0.71
11	CG9447	1	-1.11	-0.36	0.38	-0.56
12	CG4942	1	0.23	0.11	-0.55	0.5
13	Smyd4-3 (SET and MYND domain containing, class 4, member 3)	1	0.1	0.73	0.81	0.56
14	dob (doppelganger von brummer)	1	0.1	0.05	-0.5	-0.17
15	CG3376	1	-0.57	0.06	-1.32	-0.2
16	ara (araucan)	1	-2.33	-2.87	-1.25	-0.43
17	Tudor-SN (Tudor staphylococcal nuclease)	1	-0.35	-0.7	1.09	0.44
18	Syngr (Synaptogyrin)	1	0.46	0.08	-0.07	-0.98
19	CG13728	1	1.23	-0.07	0.5	0.82
20	FeCH (Ferrochelatase)	1	0.01	0.18	0.84	0.06
21	CG17930	1	-0.46	-0.59	-0.64	0.1
22	Nup107 (Nucleoporin 107kD)	1	-0.97	0	-2.49	-5.23
23	Lcp1Psi (Larval cuticle protein 1 pseudogene)	1	-1.12	-0.2	-0.09	0.94
24	CG32022	1	0.86	1.63	0.7	0.05
25	CG10505	1	0.28	-0.29	1.43	0.84
26	Nup43 (Nucleoporin 43kD)	1	0.81	-0.39	-0.61	-1.82
27	CG1090	1	0.82	0.72	-0.24	-0.18
28	CG1090	2	0.86	1.95	0.06	0.77
29	Ucp4C (Uncoupling protein 4C)	1	-0.26	0.11	0.43	-0.76
30	Rae1	1	0.97	0.33	0.91	-0.03
31	CG12307	1	-0.01	-0.39	-0.44	-0.11
32	CG11267	1	0.25	0.53	0.54	-0.21
33	Srp72 (Signal recognition particle 72)	1	-0.05	-0.95	-0.87	-0.7
34	CG16717	1	0.64	0.19	-0.47	-0.11
35	Muc55B (Mucin 55B)	1	-0.21	0.73	-0.05	0.32
36	Ir51a (Ionotropic receptor 51a)	1	-0.43	-1.35	-0.13	0.52
37	sel (seele)	1	0.36	-0.08	0.6	-0.12
38	alpha-Est2 (alpha-Esterase-2)	1	-0.29	0.03	-0.49	0.59
39	CG34135 + Nasp + CG11768	1	1.4	1.08	-0.06	1.07
40	CG34135 + Nasp + CG11768	2	-0.78	-0.78	-1.6	-3.22
41	Fbxl4 (F box and leucine-rich-repeat gene 4)	1	0.47	-0.29	-0.37	-0.63
42	GNBP-like3 (GNBP-like 3)	1	0.48	-0.16	-0.29	-0.14
43	CG31522	1	-0.17	-0.03	1.05	0.23
44	UK114	1	-0.59	0.64	-0.07	0.33
45	porin	1	-0.23	-0.18	0.17	-0.17
46	CG9953	1	-0.29	-0.28	-1.33	-1.09
47	CR33317 (pseudo)	1	-0.13	0.05	-0.38	0.41
48	HmgD (High mobility group protein D)	1	1.57	-0.34	-0.52	-0.28
49	achi (achintya)	1	0.91	0.93	-0.15	0.24
50	Mlc1 (Myosin alkali light chain 1)	1	0.06	0.02	-0.5	-0.1
51	Mtap (Methylthioadenosine phosphorylase)	1	-0.91	-0.1	1.15	0.6
52	robo1 (roundabout 1)	1	0.62	-0.43	-0.01	-0.05
53	ast (asteroid)	1	0.08	0.32	-1.43	-0.42
54	CG31776	1	0.47	-0.17	1.19	0.95
55	futsch	1	0.18	0.14	-0.25	0.33
56	futsch	2	0.26	0.12	0.2	-0.28
57	futsch	3	-0.34	0.52	-0.41	1.92
58	futsch	4	-0.55	-0.77	0	0.6

Looked up above:
Result of Ucp4C (Uncoupling protein 4C) in “replicate 2, z-score of dpERK with insulin”: 0.11
Mtap (Methylthioadenosine phosphorylase), replicate 1, z-score of dpERK with insulin: -0.91
Entry of CG3376 under “replicate 1, z-score of dpERK under basal conditions”: -1.32
CG17930, replicate 2, z-score of dpERK with insulin → -0.59
Value of CG9953 under “replicate 1, z-score of dpERK under basal conditions”: -1.33
Value of Srp72 (Signal recognition particle 72) in “replicate 1, z-score of dpERK under basal conditions”: -0.87
